The other results are listed elsewhere or left out.
Tests used:
Experiment in all cases: log2 fold change, soluble protein after heating vs DMSO (PISA); higher = thermal stabilisation; K562 cells, 10 uM, 30 min; active = over 0.2 and 3.5 SD of the protein, either way, in both replicates (recomputed)
[1] = compound: CC1=C(C=C(C=C1)NC(=O)C2=CC(=CC=C2)C(C)(C)C#N)NC3=CC4=C(C=C3)N=CN(C4=O)C
Procedure, shortened: (§1)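 Soluble protein was quantified by TMTpro 16plex LC-MS/MS after channel sums were equalised. It was obtained as the supernatant after 21,000xg for 90 min from pooled aliquots of K562 cells (2×10^6 cells/mL, 10 μM compound, 30 min) heated for 3 min across 48°C-58°C and extracted in PBS with 0.5% NP-40 at 4°C. Thermal stability values are relative to control samples and come from duplicates. They are given as log2 fold changes.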

By UniProt entry, the sequences of proteins in these tests, tags left out. Where a name states a change or a piece, a line headed by the entry shows the natural chain unless it says otherwise.
UniProt Q96GQ7: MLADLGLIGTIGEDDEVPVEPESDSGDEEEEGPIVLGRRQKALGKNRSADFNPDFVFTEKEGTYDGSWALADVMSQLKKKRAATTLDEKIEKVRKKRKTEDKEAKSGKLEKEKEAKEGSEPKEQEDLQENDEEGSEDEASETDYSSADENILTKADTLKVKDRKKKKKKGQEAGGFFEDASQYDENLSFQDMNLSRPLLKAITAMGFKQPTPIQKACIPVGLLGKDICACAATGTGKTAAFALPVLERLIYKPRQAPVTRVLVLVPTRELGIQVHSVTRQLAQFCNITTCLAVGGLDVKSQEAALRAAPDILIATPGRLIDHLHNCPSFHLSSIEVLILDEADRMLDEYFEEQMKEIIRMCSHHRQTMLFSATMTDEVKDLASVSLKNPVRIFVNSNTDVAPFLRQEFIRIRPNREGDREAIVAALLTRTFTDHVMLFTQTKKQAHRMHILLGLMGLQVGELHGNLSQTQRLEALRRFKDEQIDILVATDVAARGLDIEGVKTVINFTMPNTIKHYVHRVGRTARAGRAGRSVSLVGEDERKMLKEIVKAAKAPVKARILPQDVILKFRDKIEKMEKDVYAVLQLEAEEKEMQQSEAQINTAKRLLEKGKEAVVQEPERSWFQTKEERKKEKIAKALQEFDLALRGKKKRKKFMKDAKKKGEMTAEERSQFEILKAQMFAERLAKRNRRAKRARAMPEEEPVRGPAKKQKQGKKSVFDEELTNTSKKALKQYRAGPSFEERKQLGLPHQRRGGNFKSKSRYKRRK
UniProt Q86XP3: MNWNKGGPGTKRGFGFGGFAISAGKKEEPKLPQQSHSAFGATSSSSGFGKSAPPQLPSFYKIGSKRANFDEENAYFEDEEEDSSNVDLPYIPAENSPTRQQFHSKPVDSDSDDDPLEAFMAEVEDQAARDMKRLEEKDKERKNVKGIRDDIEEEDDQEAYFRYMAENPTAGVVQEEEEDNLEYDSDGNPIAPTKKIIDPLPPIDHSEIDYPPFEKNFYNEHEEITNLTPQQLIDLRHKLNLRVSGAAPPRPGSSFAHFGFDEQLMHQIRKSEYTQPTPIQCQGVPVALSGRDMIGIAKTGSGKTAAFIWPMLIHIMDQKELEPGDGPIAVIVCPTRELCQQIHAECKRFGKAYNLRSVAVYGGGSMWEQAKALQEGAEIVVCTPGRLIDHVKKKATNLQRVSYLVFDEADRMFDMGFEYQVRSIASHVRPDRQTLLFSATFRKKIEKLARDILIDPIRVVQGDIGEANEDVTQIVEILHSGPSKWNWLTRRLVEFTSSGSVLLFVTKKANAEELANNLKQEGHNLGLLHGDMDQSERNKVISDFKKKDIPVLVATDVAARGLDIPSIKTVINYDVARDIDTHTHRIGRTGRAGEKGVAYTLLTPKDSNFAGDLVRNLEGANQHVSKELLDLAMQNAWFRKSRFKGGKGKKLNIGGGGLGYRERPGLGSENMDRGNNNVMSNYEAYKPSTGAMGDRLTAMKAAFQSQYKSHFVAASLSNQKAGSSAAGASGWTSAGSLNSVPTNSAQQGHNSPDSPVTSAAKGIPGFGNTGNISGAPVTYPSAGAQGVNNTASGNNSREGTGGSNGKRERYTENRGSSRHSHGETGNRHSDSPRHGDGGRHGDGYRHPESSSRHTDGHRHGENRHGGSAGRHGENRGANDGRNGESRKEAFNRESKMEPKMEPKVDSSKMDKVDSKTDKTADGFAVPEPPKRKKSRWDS
UniProt Q9UHI6: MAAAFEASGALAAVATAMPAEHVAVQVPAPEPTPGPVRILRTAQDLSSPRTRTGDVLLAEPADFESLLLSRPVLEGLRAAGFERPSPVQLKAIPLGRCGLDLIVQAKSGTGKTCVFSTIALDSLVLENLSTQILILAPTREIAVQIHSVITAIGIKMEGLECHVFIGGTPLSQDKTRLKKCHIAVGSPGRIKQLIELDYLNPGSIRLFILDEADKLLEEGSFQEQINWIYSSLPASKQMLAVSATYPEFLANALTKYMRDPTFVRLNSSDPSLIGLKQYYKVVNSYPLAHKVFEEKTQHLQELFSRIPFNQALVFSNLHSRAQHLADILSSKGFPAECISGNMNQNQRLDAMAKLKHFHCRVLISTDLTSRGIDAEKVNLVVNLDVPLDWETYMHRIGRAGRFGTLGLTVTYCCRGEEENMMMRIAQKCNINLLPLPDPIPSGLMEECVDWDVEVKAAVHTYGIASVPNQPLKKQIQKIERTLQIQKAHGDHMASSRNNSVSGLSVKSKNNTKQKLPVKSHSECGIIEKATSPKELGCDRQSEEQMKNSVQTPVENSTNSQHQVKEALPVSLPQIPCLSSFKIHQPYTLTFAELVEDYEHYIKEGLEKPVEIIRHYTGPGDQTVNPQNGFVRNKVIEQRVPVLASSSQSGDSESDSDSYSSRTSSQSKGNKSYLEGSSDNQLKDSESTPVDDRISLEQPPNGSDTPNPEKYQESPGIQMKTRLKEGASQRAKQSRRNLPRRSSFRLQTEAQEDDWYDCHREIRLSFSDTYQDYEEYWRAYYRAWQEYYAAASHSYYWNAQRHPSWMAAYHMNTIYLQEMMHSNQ
UniProt Q6UX07: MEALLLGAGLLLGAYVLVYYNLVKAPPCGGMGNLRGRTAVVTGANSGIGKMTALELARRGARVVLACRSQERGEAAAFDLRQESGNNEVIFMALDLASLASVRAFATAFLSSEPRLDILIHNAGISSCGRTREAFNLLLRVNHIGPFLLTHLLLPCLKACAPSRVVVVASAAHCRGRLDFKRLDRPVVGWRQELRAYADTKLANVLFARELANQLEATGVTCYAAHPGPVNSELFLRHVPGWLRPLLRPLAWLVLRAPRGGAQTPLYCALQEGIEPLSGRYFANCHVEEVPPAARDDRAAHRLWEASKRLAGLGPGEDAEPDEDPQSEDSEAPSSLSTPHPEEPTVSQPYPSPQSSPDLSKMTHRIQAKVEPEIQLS
UniProt Q8IX18: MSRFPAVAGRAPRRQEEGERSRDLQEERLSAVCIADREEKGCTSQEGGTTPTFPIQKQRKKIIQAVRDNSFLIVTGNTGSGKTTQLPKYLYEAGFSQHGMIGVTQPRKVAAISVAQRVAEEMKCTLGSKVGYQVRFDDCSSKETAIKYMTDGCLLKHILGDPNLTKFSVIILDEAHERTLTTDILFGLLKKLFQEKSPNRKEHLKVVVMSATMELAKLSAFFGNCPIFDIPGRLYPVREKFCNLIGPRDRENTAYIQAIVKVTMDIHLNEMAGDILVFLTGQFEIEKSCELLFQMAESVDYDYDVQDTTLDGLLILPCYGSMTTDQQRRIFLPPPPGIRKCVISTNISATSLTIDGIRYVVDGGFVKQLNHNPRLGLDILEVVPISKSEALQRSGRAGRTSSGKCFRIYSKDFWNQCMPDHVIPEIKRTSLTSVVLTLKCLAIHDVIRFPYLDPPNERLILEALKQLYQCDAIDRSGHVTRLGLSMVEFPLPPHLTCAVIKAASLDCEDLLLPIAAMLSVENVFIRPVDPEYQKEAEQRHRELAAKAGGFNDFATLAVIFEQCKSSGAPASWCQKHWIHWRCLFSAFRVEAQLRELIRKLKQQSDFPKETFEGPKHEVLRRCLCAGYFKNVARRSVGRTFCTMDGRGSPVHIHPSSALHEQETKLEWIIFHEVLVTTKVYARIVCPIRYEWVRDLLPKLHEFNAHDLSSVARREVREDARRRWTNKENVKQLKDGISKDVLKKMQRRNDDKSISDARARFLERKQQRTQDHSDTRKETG
UniProt Q9GZP9: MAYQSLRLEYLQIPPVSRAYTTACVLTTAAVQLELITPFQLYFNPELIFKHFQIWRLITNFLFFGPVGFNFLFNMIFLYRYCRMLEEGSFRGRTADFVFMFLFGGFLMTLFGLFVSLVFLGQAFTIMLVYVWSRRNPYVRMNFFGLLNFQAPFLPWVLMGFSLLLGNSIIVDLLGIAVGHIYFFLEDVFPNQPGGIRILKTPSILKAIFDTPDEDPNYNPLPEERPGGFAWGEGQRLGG
UniProt Q9BTC0, whole entry, looked up: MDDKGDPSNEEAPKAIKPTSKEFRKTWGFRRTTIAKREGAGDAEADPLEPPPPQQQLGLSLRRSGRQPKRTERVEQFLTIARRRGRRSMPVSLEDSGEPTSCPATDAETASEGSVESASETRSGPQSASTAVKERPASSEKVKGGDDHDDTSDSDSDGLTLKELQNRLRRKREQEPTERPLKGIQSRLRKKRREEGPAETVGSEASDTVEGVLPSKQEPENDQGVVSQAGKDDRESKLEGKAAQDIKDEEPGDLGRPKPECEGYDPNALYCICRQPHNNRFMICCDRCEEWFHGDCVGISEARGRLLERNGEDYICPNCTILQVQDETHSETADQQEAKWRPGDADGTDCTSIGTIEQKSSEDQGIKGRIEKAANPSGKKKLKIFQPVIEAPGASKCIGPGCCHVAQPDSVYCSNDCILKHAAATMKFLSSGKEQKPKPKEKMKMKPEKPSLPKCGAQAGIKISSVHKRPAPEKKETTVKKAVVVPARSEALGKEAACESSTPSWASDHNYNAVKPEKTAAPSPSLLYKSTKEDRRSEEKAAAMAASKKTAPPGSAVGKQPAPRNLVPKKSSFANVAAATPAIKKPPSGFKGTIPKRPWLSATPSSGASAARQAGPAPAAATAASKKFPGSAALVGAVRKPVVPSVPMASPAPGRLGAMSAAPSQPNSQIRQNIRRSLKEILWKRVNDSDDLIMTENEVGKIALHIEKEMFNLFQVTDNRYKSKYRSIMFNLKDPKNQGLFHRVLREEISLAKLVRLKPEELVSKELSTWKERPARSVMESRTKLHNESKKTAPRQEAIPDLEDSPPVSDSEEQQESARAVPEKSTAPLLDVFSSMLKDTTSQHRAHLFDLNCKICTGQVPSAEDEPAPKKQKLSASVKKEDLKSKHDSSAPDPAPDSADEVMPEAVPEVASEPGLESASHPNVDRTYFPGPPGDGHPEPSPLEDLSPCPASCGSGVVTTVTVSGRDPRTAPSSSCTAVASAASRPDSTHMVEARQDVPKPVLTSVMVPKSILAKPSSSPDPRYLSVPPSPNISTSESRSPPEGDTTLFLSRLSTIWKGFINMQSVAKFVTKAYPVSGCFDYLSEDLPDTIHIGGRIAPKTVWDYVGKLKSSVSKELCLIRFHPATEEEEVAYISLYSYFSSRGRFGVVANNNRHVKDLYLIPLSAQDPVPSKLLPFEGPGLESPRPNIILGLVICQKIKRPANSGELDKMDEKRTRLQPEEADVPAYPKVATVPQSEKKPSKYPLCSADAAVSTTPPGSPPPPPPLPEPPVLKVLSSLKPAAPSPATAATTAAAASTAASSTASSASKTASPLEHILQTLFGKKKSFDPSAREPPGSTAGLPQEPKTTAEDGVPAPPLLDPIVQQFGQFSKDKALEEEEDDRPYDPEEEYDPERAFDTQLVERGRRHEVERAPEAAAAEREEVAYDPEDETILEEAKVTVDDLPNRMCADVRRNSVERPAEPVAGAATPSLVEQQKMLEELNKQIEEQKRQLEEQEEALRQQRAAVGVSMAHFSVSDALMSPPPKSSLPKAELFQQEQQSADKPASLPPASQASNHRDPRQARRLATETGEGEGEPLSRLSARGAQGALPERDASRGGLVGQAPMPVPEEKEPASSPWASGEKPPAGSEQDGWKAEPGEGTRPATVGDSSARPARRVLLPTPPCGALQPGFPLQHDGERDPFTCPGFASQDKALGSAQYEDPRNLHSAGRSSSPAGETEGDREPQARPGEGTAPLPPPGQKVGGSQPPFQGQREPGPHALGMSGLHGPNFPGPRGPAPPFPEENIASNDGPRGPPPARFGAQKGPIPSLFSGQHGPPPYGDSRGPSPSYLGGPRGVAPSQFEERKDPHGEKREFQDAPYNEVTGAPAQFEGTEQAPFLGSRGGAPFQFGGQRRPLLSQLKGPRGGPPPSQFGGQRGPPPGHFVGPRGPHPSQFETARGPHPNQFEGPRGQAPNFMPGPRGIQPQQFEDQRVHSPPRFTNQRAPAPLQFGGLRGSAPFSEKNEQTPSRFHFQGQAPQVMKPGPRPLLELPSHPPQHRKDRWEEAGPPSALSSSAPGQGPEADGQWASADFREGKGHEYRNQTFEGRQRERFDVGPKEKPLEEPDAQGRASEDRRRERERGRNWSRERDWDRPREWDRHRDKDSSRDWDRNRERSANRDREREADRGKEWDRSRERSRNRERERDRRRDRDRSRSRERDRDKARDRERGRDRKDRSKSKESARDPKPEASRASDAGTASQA
UniProt Q96LJ7: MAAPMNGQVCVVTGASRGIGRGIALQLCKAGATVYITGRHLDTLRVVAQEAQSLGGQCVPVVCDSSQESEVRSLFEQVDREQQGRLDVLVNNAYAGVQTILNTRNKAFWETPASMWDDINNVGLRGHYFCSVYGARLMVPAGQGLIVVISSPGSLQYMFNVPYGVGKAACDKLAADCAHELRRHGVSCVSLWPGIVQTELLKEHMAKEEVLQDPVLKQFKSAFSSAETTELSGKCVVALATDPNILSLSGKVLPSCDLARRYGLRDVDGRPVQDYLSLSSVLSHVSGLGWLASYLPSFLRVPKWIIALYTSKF

[2] = compound: CC1=C(C=C(C=C1)NC(=O)C2=CC(=CC=C2)N(C)C)NC(=O)C3=CC=C(C=C3)O
Procedure, shortened: as §1

[3] = compound: CC1=NC(=CC=C1)C2=C(N=C(N2)C(C)(C)C)C3=CC4=NC=CN=C4C=C3
Procedure, shortened: as §1

Nexturastat A = compound: CCCCN(Cc1ccc(C(=O)NO)cc1)C(=O)Nc1ccccc1 [Nexturastat A]
Procedure, shortened: as §1

vemurafenib = compound: CCCS(=O)(=O)Nc1ccc(F)c(C(=O)c2c[nH]c3ncc(-c4ccc(Cl)cc4)cc23)c1F [vemurafenib]
Procedure, shortened: as §1

[4] = compound: CCCc1cc(C)[nH]c(=O)c1CNC(=O)c1cc(-c2ccnc(N3CCN(C)CC3)c2)cc2c1cnn2C(C)C
Procedure, shortened: as §1

givinostat = compound: CCN(CC)Cc1ccc2cc(COC(=O)Nc3ccc(C(=O)NO)cc3)ccc2c1 [givinostat]
Procedure, shortened: as §1

[5] = compound: CC[C@@H]1C(=O)N(C)c2cnc(Nc3ccc(C(=O)NC4CCN(C)CC4)cc3OC)nc2N1C1CCCC1
Procedure, shortened: as §1

[6] = compound: CC[C@H](C)N1C=C(C2=C(C=C(C=C21)C3=CN=C(C=C3)N4CCNCC4)C(=O)NCC5=C(C=C(NC5=O)C)C)C
Procedure, shortened: as §1

epoxomicin = compound: CC[C@H](C)[C@@H](C(=O)N[C@@H]([C@@H](C)O)C(=O)N[C@@H](CC(C)C)C(=O)[C@]1(CO1)C)NC(=O)[C@H]([C@@H](C)CC)N(C)C(=O)C [epoxomicin]
Procedure, shortened: as §1

[7] = compound: CCn1cc(-c2ccnc3[nH]c(-c4cccc(CN(C)C)c4)cc23)c(-c2ccc(NC(=O)N(C)C)cc2)n1
Procedure, shortened: as §1

[8] = compound: CN(C)CC(=O)Nc1ccc2[nH]c(=O)c3ccccc3c2c1
Procedure, shortened: as §1

[9] = compound: CN1C2=C(C3=C1C(=O)N(N=C3)CC4=CC(=CC=C4)N)SC(=C2)S(=O)C
Procedure, shortened: as §1

[10] = compound: CN1CCC(CNc2ccc3ncc(-c4cccc(OC(F)(F)F)c4)n3n2)CC1
Procedure, shortened: as §1

[11] = compound: CC1=CC=C(C=C1)SC2=C3C=C(SC3=CN=C2)C(=O)N
Procedure, shortened: as §1

[12] = compound: CCCS(=O)(=O)Nc1ccc(F)c(C(=O)c2c[nH]c3ncc(Cl)cc23)c1F
Procedure, shortened: as §1

barasertib = compound: CCN(CCCOc1ccc2c(Nc3cc(CC(=O)Nc4cccc(F)c4)[nH]n3)ncnc2c1)CCOP(=O)(O)O [barasertib]
Procedure, shortened: as §1

volasertib = compound: CC[C@@H]1C(=O)N(C)c2cnc(Nc3ccc(C(=O)N[C@H]4CC[C@H](N5CCN(CC6CC6)CC5)CC4)cc3OC)nc2N1C(C)C [volasertib]
Procedure, shortened: as §1

[13] = compound: CCn1c(C(=O)N(C2CC2)C2CC2)cc2c3c(ncn3C)c(Nc3cc(C)n(C)n3)nc21
Procedure, shortened: as §1

rosiglitazone = compound: CN(CCOC1=CC=C(C=C1)C[C@H]2C(=O)NC(=O)S2)C3=CC=CC=N3 (racemic) [rosiglitazone]
Procedure, shortened: as §1

Row | Target | log2 fold change [1] | log2 fold change [2] | log2 fold change [3] | log2 fold change (Nexturastat A) | log2 fold change (vemurafenib) | log2 fold change [4] | log2 fold change (givinostat) | log2 fold change [5] | log2 fold change [6] | log2 fold change (epoxomicin) | log2 fold change [7] | log2 fold change [8] | log2 fold change [9] | log2 fold change [10] | log2 fold change [11] | log2 fold change [12] | log2 fold change (barasertib) | log2 fold change (volasertib) | log2 fold change [13] | log2 fold change (rosiglitazone)
1 | DDX27 (UniProt Q96GQ7) | inactive: -0.026 | inactive: -0.057 | inactive: -0.293 | inactive: 0.249 | inactive: -0.25 | inactive: -0.142 | inactive: 0.081 | inactive: -0.033 | inactive: 0.1 | inactive: -0.184 | inactive: 0.116 | inactive: -0.009 | inactive: 0.162 | inactive: 0.241 |  |  |  |  |  | 
2 | DDX41 (UniProt Q9UJV9) | inactive: -0.012 | inactive: 0.115 |  | inactive: 0.094 | inactive: -0.024 | inactive: 0.001 | inactive: 0.105 | inactive: -0.09 | inactive: -0.002 | inactive: 0.096 | inactive: -0.035 | inactive: -0.041 | inactive: 0.028 | inactive: -0.152 | inactive: -0.004 | inactive: 0.017 | inactive: -0.076 | inactive: -0.011 | inactive: -0.005 | inactive: 0.025
3 | DDX42 (UniProt Q86XP3) | inactive: 0.006 | inactive: -0.184 | inactive: 0.06 | inactive: -0.056 |  |  | inactive: 0.202 | inactive: 0.04 |  | inactive: 0.1 | inactive: -0.022 |  | inactive: 0.05 | inactive: -0.038 | inactive: 0.13 | inactive: 0.101 | inactive: 0.106 | inactive: -0.461 | inactive: -0.293 | inactive: 0.192
4 | DHFR (UniProt P00374) | inactive: -0.069 | inactive: 0.003 | inactive: -0.074 | inactive: 0.232 | inactive: 0.044 | inactive: 0.17 | inactive: 0.162 | inactive: 0.002 | inactive: 0.088 | inactive: -0.013 | inactive: -0.077 | inactive: 0.091 | inactive: 0.113 | active: 1.64 | inactive: -0.086 | inactive: 0.001 | inactive: 0.068 | inactive: -0.11 |  | 
5 | DICER1 (UniProt Q9UPY3) | inactive: 0.033 | inactive: -0.036 |  | inactive: 0.027 | inactive: -0.182 | inactive: -0.003 | inactive: -0.05 |  | inactive: 0.11 | inactive: -0.489 | inactive: 0.043 | inactive: -0.206 | inactive: 0.166 | inactive: 0.006 | inactive: 0.026 | inactive: -0.002 | inactive: -0.095 | inactive: -0.033 | inactive: -0.043 | inactive: 0.042
6 | DIAPH1 (UniProt O60610) | inactive: 0.018 | inactive: -0.05 | inactive: -0.049 | inactive: 0.19 | inactive: 0.041 | inactive: 0.08 | inactive: 0.051 | inactive: 0.012 | inactive: 0.09 | inactive: -0.004 | inactive: 0.055 | inactive: 0.053 | inactive: 0.168 | inactive: -0.012 | inactive: 0.025 | inactive: 0.062 | inactive: 0.077 | inactive: -0.211 |  | 
7 | DLG3 (UniProt Q92796) | inactive: -0.105 | inactive: 0.044 | inactive: 0.014 | inactive: -0.173 | inactive: -0.111 | inactive: -0.058 | inactive: 0.161 |  | inactive: -0.078 | inactive: 0.057 | inactive: -0.022 | inactive: 0.039 | inactive: -0.084 | inactive: -0.105 | inactive: 0.003 | inactive: -0.042 | inactive: 0.021 | inactive: -0.001 | inactive: -0.033 | inactive: 0.08
8 | DDHD1 (UniProt Q8NEL9) | inactive: 0.077 | inactive: -0.111 | inactive: -0.042 |  |  |  | inactive: -0.081 |  |  |  | inactive: 0.029 |  | inactive: 0.03 | inactive: -0.303 | inactive: -0.099 | inactive: 0.071 | inactive: 0.112 | inactive: -0.27 | inactive: 0.13 | inactive: -0.006
9 | DDX20 (UniProt Q9UHI6) | inactive: 0.08 | inactive: 0.041 | inactive: -0.137 | inactive: 0.373 |  | inactive: 0.02 | inactive: 0.207 | inactive: 0.028 | inactive: 0.076 | inactive: -0.186 | inactive: 0.283 |  | inactive: 0.132 | inactive: -0.105 | inactive: 0.056 | inactive: 0.085 | inactive: 0.068 | inactive: -0.471 | inactive: 0.051 | inactive: 0.001
10 | DHRS13 (UniProt Q6UX07) | inactive: -0.106 | inactive: 0.027 | inactive: -0.055 |  | inactive: -0.062 | inactive: 0.084 | inactive: 0.249 | inactive: 0.157 | inactive: 0.139 |  | inactive: -0.077 | inactive: 0.225 | inactive: 0.143 | inactive: 0.098 |  |  |  |  |  | 
11 | DDB1 (UniProt Q16531) | inactive: -0.012 | inactive: 0.011 | inactive: 0 | inactive: -0.036 | inactive: -0.012 | inactive: -0.027 | inactive: 0 | inactive: 0.045 | inactive: -0.032 | inactive: -0.024 | inactive: 0.009 | inactive: -0.005 | inactive: -0.028 | inactive: 0 | inactive: 0.006 | inactive: -0.003 | inactive: -0.01 | inactive: 0.036 |  | 
12 | DHX40 (UniProt Q8IX18) | inactive: 0.105 | inactive: -0.047 | inactive: -0.027 | inactive: 0.12 | inactive: 0 | inactive: 0.025 | inactive: 0.087 | inactive: -0.006 | inactive: 0.188 | inactive: -0.037 | inactive: -0.013 | inactive: 0.026 | inactive: -0.076 | inactive: -0.029 | inactive: 0.02 | inactive: 0.043 | inactive: -0.002 | inactive: -0.236 |  | 
13 | DERL2 (UniProt Q9GZP9) | inactive: -0.13 | inactive: 0.002 | inactive: 0.093 | inactive: -0.103 | inactive: -0.031 | inactive: -0.034 |  |  | inactive: -0.19 | inactive: 0.031 | inactive: 0.17 | inactive: 0.041 | inactive: -0.025 | inactive: 0.02 | inactive: -0.078 | inactive: -0.092 | inactive: 0.056 | inactive: -0.029 |  | inactive: 0.12
14 | DIDO1 (UniProt Q9BTC0) | inactive: -0.062 | inactive: 0.011 | inactive: 0.034 | inactive: 0.099 |  | inactive: -0.082 | inactive: 0.109 | inactive: 0 |  | inactive: -0.047 | inactive: -0.006 |  | inactive: 0.149 | inactive: -0.034 | inactive: 0.053 | inactive: -0.003 |  | inactive: -0.033 | inactive: -0.048 | 
15 | DENND4A isoform 2 (UniProt Q7Z401) | inactive: -0.083 | inactive: 0.047 | inactive: -0.215 | inactive: 0.024 | inactive: -0.049 | inactive: 0.227 |  | inactive: -0.012 | inactive: 0.137 | inactive: -0.122 | inactive: -0.002 | inactive: 0.004 | inactive: 0.147 | inactive: -0.231 | inactive: 0.059 | inactive: 0.014 | inactive: 0.301 | inactive: -0.081 |  | inactive: 0.046
16 | DDX46 (UniProt Q7L014) | inactive: 0.123 | inactive: -0.117 | inactive: 0.069 | inactive: -0.069 | inactive: 0.099 | inactive: 0.001 | inactive: 0.171 | inactive: -0.259 | inactive: 0.087 | inactive: 0.192 | inactive: -0.129 | inactive: 0.133 | inactive: -0.066 | inactive: 0.087 | inactive: 0 | inactive: 0.136 | inactive: 0.13 | inactive: -0.275 |  | 
17 | DHRS1 (UniProt Q96LJ7) | inactive: 0.357 | inactive: -0.143 | inactive: -0.202 | inactive: 0.096 | inactive: 0.29 | inactive: 0.088 | inactive: 0.068 | inactive: 0.164 | inactive: 0.039 | inactive: -0.062 | inactive: -0.098 | inactive: -0.048 | inactive: -0.051 | inactive: 0.065 | inactive: -0.166 | inactive: -0.079 | inactive: -0.05 | inactive: 0.302 |  | 
18 | DIPK2A (UniProt Q8NDZ4) | inactive: 0.007 | inactive: -0.053 | inactive: 0.009 |  | inactive: 0.066 |  | inactive: 0.174 |  | inactive: 0.08 |  |  | inactive: 0.012 | inactive: -0.021 |  |  |  | inactive: 0.069 |  | inactive: 0.026 | inactive: 0.163
19 | DLD (UniProt P09622) | inactive: -0.045 | inactive: 0.025 | inactive: 0.013 | inactive: -0.058 | inactive: -0.021 | inactive: 0.029 | inactive: -0.06 | inactive: 0.043 | inactive: -0.028 | inactive: -0.015 | inactive: -0.007 | inactive: -0.012 | inactive: -0.035 | inactive: -0.118 | inactive: 0.008 | inactive: -0.01 | inactive: 0 | inactive: 0.143 |  | 

Reformatted: results already given
Row	Target	log2 fold change [1]	log2 fold change [2]	log2 fold change [3]	log2 fold change (Nexturastat A)	log2 fold change (vemurafenib)	log2 fold change [4]	log2 fold change (givinostat)	log2 fold change [5]	log2 fold change [6]	log2 fold change (epoxomicin)	log2 fold change [7]	log2 fold change [8]	log2 fold change [9]	log2 fold change [10]	log2 fold change [11]	log2 fold change [12]	log2 fold change (barasertib)	log2 fold change (volasertib)	log2 fold change [13]	log2 fold change (rosiglitazone)
17	DHRS1 (UniProt Q96LJ7)	inactive: 0.357	inactive: -0.143	inactive: -0.202	inactive: 0.096	inactive: 0.29	inactive: 0.088	inactive: 0.068	inactive: 0.164	inactive: 0.039	inactive: -0.062	inactive: -0.098	inactive: -0.048	inactive: -0.051	inactive: 0.065	inactive: -0.166	inactive: -0.079	inactive: -0.05	inactive: 0.302		
18	DIPK2A (UniProt Q8NDZ4)	inactive: 0.007	inactive: -0.053	inactive: 0.009		inactive: 0.066		inactive: 0.174		inactive: 0.08			inactive: 0.012	inactive: -0.021				inactive: 0.069		inactive: 0.026	inactive: 0.163

From the supplement of paper PMC10849652
